Data source: PubChem BioAssay AID652272 (Drosophila RNAi Screening Center, 2013)

Assay: 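Finding fly genes that regulate Hedgehog signal transduction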 (primary screen)
Cell system: Drosophila clone 8 (Cl8) cells
Knock-down reagent: long dsRNA against Drosophila genes
Detection: 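Firefly light from a Hedgehog-responsive ptc promoter reporter and Renilla reference light, both read on a plate reader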
Direction: firefly Hh reporter signal: higher = more ptc reporter light; Renilla reference signal: higher = more Renilla control light
Call rule: 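Hit when the z-score averaged over two replicates is under -2 or over +3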
Calls: active = hit: reporter lowered or raised; inactive = not a hit
In all, the deposit lists about 21,000 reagents; this is an unselected part of those that have a named target and a result. Over the whole deposit, 503 (2.4%) got an active call. 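Raw plate light values, not normalised; calls rest on replicate z-scores that were not deposited; hits include reporter decreases as well as increases.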 Reagents against one gene are numbered here. A plus sign joins genes that one reagent is predicted to hit. Not given: the amount of reagent, the time to read-out.

no.	target gene	dsRNA no.	firefly Hh reporter signal, replicate 1	firefly Hh reporter signal, replicate 2	firefly Hh reporter signal, replicate 3	Renilla reference signal, replicate 1	Renilla reference signal, replicate 2	Call
1	ste24c + CR30461 (retired record)	1	98480	2.25e5		2841	9321	inactive
2	ste24c + CR30461 (retired record)	2	87936	58658		2214	3965	inactive
3	ItgaPS5	1	1.30e5	77670		3061	6834	inactive
4	CG4830	1	79256	89603		2369	2214	inactive
5	CG31533	1	33113	1.63e5		1592	2008	inactive
6	wake	1	4.83e5	1.06e5		23633	3312	inactive
7	wake	2	4.40e5	1.22e5		21601	3773	inactive
8	KLHL18	1	99589	75718		3888	3056	inactive
9	Syp	1	44656	2.01e5		9513	4816	inactive
10	Syp	2	1.49e5	71477		5815	3353	inactive
11	CG33777	1	1.16e5	1.91e5		3287	8434	inactive
12	Ugt37C1	1	62983	56080		875	3971	inactive
13	Jon99Fii	1	1.31e5	1.40e5		4934	3992	inactive
14	Ire1	1	5.69e5	81235		27463	2614	inactive
15	CG15005	1	1.29e5	66492		3622	5268	inactive
16	Whamy	1	66179	1.19e5		2067	3414	inactive
17	CG3987	1	1.39e5	1.07e5		5959	4557	inactive
18	snRNP-U1-C	1	5.28e5	87165		29911	2572	inactive
19	CG12374	1	72584	51241		1899	3841	inactive
20	Osi24	1	93413	1.07e5		3708	2881	inactive
21	CG17777	1	96151	1.85e5		4237	8010	inactive
22	btsz	1	37349	40896		1392	1280	inactive
23	btsz	2	50819	35252		1857	1335	inactive
24	btsz	3	84953	92896		3350	3057	inactive
25	btsz	4	92166	76611		3041	2109	inactive
26	CG3061	1	74636	84843		1632	2121	inactive
27	Tps1	1	95864	70745		4688	2941	inactive
28	stet	1	60503	44565		2140	3408	inactive
29	stet	2	63632	38163		2429	3334	inactive
30	unc-13	1	4.82e5	1.61e5		23540	3187	inactive
31	unc-13	2	4.86e5	1.65e5		26026	3920	inactive
32	unc-13	3	1.10e5	72306		2473	2643	inactive
33	CG10505	1	77147	60145		1899	6022	inactive
34	CG3544	1	1.02e5	1.21e5		4492	5045	inactive
35	hfp	1	59877	29573		2400	2988	inactive
36	hfp	2	92011	36420		2564	2995	inactive
37	CG18605	1	1.52e5	50069		4027	979	inactive
38	CG32457	1	6.91e5	3.57e5	1.52e5	4843	7873	inactive
39	emb	1	1.19e5	91379		3451	2269	inactive
40	Gbs-70E	1	1.08e5			4156	2880	inactive
41	CG18764	1	98160	1.25e5		2406	6195	inactive
42	Sgs7	1	68962	34435	46876	2982	2929	inactive
43	CG14280	1	6.09e5	68704		31145	2026	inactive
44	Acam + CG17770	1	3.86e5	80727		22437	2674	inactive
45	Acam + CG17770	2	4.17e5	1.17e5		23629	3746	inactive
46	CG43278 (retired record)	1	3.48e5	1.24e5		17780	3040	inactive
47	CG14931	1	1.50e5	57724		3860	4427	inactive
48	chp	1	80358	1.08e5		1360	3232	inactive
49	CG15098	1	90645	24354		1921	1546	inactive
50	ND-B14.5A	1	1.26e5	2.98e5		4592	11010	inactive
51	CG3868	1	68067	37014		2824	1635	inactive
52	ftz	1	1.04e5	1.77e5		3698	5095	inactive
53	CG13949	1	1.65e5	1.10e5		3974	2353	inactive
54	CG2694	1	1.24e5	1.09e5		2658	3820	inactive
55	CG8028	1	1.34e5	1.78e5		5382	7872	inactive
56	CG13313	1	36441	55605		409	4176	inactive
57	Ilp4	1	41180	54333	65168	5524	4230	inactive
